What all share (test): enzyme reaction in vitro
The test system of data set [1] is DP/hDcr-C complex (Homo sapiens). The settings on record: DP addition restores full-length dicing pattern; purified recombinant protein; protein details: E. coli expressed, mixed in trans; label: 5'-32P on one strand (37a).
The target of data set [2] is T1, hDcr-C (RNase IIIa/IIIb-dsRBD) fragment of human Dicer (Homo sapiens) (UniProt Q9UPY3).
T1 sequence: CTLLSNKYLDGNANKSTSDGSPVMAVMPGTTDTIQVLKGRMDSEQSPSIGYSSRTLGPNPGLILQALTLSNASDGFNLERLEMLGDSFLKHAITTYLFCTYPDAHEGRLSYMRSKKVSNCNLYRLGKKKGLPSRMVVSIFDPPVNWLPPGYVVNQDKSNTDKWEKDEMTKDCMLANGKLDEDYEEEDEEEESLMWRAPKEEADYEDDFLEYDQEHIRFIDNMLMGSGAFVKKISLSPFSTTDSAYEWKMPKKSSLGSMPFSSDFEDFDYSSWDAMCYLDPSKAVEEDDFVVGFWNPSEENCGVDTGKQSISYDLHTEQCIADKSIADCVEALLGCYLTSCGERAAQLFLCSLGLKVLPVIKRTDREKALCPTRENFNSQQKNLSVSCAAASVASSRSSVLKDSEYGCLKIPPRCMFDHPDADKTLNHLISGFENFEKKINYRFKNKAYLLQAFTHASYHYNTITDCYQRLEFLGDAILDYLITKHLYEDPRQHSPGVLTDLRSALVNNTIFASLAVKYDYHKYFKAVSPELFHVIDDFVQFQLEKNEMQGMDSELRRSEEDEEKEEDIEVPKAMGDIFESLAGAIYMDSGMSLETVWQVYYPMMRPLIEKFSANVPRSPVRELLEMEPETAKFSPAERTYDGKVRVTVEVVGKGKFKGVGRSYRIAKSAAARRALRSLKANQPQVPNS
As to conditions: mainly 15-nt product, purified recombinant protein, protein details: expressed from pHMGWA-His6-MBP vector, E. coli.

Chains of the proteins cited; added tags and fusions are not shown. Chains listed by the source or under a name are the forms on record and can include a tag or linker.
hDcr-N/hDcr-C complex (Homo sapiens), one chain, as listed by the source: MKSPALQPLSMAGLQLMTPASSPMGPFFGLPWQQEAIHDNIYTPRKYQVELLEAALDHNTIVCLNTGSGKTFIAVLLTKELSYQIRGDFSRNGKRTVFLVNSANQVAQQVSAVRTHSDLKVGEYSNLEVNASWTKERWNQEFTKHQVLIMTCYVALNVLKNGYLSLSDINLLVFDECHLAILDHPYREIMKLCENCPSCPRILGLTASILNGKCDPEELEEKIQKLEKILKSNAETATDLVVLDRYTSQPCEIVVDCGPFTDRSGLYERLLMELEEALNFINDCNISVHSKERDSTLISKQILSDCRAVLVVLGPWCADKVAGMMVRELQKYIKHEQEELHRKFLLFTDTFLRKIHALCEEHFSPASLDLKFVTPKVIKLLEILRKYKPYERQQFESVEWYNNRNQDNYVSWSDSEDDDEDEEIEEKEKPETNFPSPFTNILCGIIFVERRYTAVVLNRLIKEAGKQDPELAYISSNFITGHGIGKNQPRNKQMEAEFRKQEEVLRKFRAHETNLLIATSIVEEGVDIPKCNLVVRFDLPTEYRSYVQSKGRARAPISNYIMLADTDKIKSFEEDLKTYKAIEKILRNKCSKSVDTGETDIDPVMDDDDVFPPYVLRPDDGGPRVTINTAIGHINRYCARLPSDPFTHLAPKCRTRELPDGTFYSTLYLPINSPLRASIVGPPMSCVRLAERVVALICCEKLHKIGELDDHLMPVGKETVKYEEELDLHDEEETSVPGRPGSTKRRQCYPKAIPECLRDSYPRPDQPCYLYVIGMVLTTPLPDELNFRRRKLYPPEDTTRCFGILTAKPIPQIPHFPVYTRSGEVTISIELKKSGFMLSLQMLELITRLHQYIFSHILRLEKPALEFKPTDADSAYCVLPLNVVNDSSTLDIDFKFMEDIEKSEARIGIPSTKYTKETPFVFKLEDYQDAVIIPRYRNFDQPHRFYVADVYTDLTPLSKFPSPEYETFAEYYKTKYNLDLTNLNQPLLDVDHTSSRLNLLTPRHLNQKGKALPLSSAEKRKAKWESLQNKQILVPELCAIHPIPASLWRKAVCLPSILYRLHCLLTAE
DP/hDcr-C complex (Homo sapiens), one chain, as listed by the source: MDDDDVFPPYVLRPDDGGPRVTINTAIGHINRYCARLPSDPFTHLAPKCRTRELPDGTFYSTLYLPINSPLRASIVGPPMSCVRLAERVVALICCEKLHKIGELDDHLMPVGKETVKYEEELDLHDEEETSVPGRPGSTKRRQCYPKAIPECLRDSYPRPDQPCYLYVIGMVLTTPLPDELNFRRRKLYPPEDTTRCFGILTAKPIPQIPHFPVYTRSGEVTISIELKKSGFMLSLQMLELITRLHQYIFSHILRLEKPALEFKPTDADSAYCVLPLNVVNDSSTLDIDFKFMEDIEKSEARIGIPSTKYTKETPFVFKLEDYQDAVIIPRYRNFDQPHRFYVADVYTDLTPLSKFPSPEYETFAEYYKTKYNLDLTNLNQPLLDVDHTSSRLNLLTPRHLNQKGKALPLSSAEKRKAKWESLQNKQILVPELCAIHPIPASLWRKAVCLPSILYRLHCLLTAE

In data set [3] the test system is hDcr-N/hDcr-C complex (Homo sapiens). The settings on record: activity similar to FL-hDcr; 1.5 mM MgCl2; purified recombinant protein; protein details: co-expressed in Sf9, Ni2+ column then TEV cleavage; label: 5'-32P on one strand (37a).
Data set [4] deals with human Dicer lacking ATPase/helicase domain (Homo sapiens) (UniProt Q9UPY3). As to conditions: all substrates cleaved in similar manner, purified recombinant protein.
For data set [5], the target named is Human Dicer full-length (FL-hDcr) (Homo sapiens) (UniProt Q9UPY3). The settings on record: unfavorable substrate, similar to 37ab; purified recombinant protein; protein details: baculovirus-infected Sf9 expressed; label: 5'-32P; variant of pre-hlet-7a-1.
[6] abbreviates: label: 5'-32P on one strand (37a).

For some of these results: Weaker means in comparison with the reference protein, sequence or condition of that experiment. For some of these results: Tags and fusion partners may be left off the protein sequences shown.

For “UGAGGUAGUAGGUUGUAUAGUUUGAAAGUUCACGAUU / UCGUGAACUUUCAAACUAUACAACCUACUACCUCAUU [37ab]”, the “activity on this sequence” value in data set [1], in data set [2] (setting [6]), in data set [3] and in data set [4] (setting [6]) was “active” each time.
Turning to “UAAAGUGCUUAUAGUGCAGGUAGUGUGUAGCCAUCUACUGCAUUACGAGCACUUAAAG [pre-miR20a]”, the “activity on this sequence” value in data set [2] (label: 5'-32P) was “active”.
Regarding “UGAGGUAGUAGGUUGUAUAGUUUGAAAGUUCACGAUU / AAUCGUGAACUUUCAAACUAUACAAUCUACUGUCUUACC [hlet7-stem]”, the “activity on this sequence” value in data set [5] was “less active”; in data set [4] (label: 5'-32P, variant of pre-hlet-7a-1) it was “active”.

These data come from US20130196383A1, “Method of Producing Dicer” (published 2013).
